In this assay the target is T1, trans-2,3-enoyl-CoA reductase-like (TECRL) (human (endogenous in hiPSC-CMs)) (UniProt Q5HYJ1).
T1 sequence: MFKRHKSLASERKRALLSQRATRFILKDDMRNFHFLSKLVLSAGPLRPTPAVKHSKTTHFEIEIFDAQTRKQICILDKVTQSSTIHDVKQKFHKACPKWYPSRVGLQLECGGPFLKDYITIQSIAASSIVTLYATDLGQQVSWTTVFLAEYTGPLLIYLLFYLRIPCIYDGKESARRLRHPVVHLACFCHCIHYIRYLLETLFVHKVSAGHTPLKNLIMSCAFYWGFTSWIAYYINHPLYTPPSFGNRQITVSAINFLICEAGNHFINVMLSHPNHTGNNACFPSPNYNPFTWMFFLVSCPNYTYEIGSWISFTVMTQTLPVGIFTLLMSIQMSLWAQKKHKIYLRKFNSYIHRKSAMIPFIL
In words: co-IP; co-immunoprecipitation of TECRL and ATPB in hiPSC-CMs with and without TECRL overexpression, read by blot (n = 3).

Results on 1 substance are retold here after article PMC9110732.

Results are given in words; binding and its absence hold for the method and conditions named. Binding seen in cells or lysates may run through a third protein. Some binding calls cover weakened binding; strength is not graded here.

Turning to “ATP synthase subunit beta, mitochondrial (ATPB) (from UniProt P06576 48-529)”, the binding entry is “binds”.
